In all, about 33,000 sequences were measured (“E-score (-0.5 to 0.5)”: median about -0.015, highest 2% from about 0.3 on). The list shows a part of the results.
What follows are sequences tested against T1, Abf1 (UniProt P14164) (assay: PBM E-score (8-mer binding enrichment) (E-score (-0.5 to 0.5)); higher = stronger / more preferred TF binding). Conditions: protein concentration: 200 nM; construct: GST-full length.
T1 sequence: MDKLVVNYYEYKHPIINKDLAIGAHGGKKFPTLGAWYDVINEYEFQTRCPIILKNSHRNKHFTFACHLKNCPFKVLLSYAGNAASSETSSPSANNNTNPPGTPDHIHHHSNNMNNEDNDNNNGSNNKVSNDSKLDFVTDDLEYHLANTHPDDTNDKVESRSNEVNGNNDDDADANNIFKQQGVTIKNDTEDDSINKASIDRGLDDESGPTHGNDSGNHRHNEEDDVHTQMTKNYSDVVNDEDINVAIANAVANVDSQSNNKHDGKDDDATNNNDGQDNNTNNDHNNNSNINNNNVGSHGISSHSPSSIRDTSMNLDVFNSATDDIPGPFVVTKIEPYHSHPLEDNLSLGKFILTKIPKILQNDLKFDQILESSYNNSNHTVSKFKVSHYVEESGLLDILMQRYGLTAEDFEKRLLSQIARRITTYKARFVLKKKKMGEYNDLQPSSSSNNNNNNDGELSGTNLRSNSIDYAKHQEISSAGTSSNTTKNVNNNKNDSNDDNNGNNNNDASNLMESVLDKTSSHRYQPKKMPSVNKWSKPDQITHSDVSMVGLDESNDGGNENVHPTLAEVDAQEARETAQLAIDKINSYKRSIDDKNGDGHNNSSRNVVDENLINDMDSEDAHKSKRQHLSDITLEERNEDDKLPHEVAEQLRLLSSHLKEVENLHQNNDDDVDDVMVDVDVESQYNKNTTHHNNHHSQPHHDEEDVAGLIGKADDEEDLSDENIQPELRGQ
Procedure, shortened: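 Yeast transcription factors carrying a GST tag, as full-length proteins or DNA-binding domains, were produced by PURExpress in vitro transcription/translation. About 100-200 nM protein was applied to universal all-10-mer Agilent arrays, double-stranded by primer extension on fresh or once-stripped slides. Bound protein was detected with fluorescent anti-GST, and scans were normalised with masliner. The Universal PBM Analysis Suite gave each ungapped eight-base word, pooled with its reverse complement, an E-score, a modified Wilcoxon-Mann-Whitney statistic.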

Sequence	PBM E-score
AAGACGTG	0.107
TCTTCAAA	-0.105
ATCCCTTA	0.0934
ATCTGTCG	-0.044
CCATGCTA	-0.175
AGGCACGG	0.062
GCCTACCA	-0.211
ATAATGAG	0.117
CACACCTG	-0.19
CTCAGTTC	-0.0408
AAACTGAT	-0.0747
GCTAACAA	0.0186
GGCGTGCA	-0.0867
AAGTCTTA	-0.0436
GTAACAAC	0.165
AACCAGTA	0.00228
CTAACAAA	0.0355
TACACACA	0.007
GTGCATGA	0.214
ACCATAGA	-0.0622
CTCATCGC	0.105
CGTCGATC	0.163
CGGCCAGC	-0.133
AGCCCGAG	-0.236
AGAGCTCT	-0.0826

Individual results from above:
Value for GCTAACAA under PBM E-score: 0.0186
Value for AAGACGTG under PBM E-score: 0.107
Value for ATCTGTCG under PBM E-score: -0.044

As a short view, some entries already given.
Sequence	PBM E-score
AACCAGTA	0.00228
CTAACAAA	0.0355
TACACACA	0.007
GTGCATGA	0.214
ACCATAGA	-0.0622

Additional results:

Sequence	PBM E-score
GGCGATGA	0.248
ACCAGCAC	0.0609
CCAAGCCG	-0.165
AATTGTCG	0.129
CGACGTGC	0.134
ATCGTCTA	0.257
CGAACTTA	0.0969
AAGGAGTA	-0.269
CCTCGAAA	-0.083
AGTCGACA	0.0421
CTTAACTC	0.0297
TATGGCCA	-0.247
AAGGTATA	0.0451
ATCCGCGA	0.158
CACCCACC	-0.113
CCCCAGAA	-0.233
ACCAATGG	-0.235
TAAGCGCA	-0.123
ACTTCCCT	-0.0731
CAGGCGTA	0.00063
CCCAGAGC	-0.185
GGCATACA	-0.128
ACAGTCAC	0.165
TAAGTTGA	0.0496
GGTTCACA	-0.0114

Sequence	PBM E-score
GAGTGCCC	-0.289
ACTTGGCA	-0.199
CGTAGCAG	0.0751
GGACTTCA	-0.0998
ACTTCGCG	0.0559
ACTACAAG	0.0671
AGCCTATG	-0.215
GTTCTCAA	0.0822
CGACGCAC	0.0949
GATGGACC	0.0701
CGTCTGTC	0.151
CTACAAGA	-0.177
AATACTCG	0.146
CGCTTTCA	0.0485
GACATGAA	0.126
CGCGCACG	0.103
CTTCTAAC	0.0034
AACTATAA	0.075
TAAGCCTA	-0.00952
CAGCTCCG	-0.0337
CTCTAACC	-0.259
ATGACCCG	0.0898
GCATACGA	0.0403
CCGCAGAA	0.0228
CATGTAGC	0.172

Sequence	PBM E-score
AAGCGTGC	-0.0316
TCTTTGCA	0.0758
CGTTTTCC	0.119
CATGACCC	-0.0316
CTCAACCC	-0.102
GCCACCAC	-0.119
CACTTGCC	-0.0188
CTCAGGTC	0.0718
CTGCCTAA	-0.0988
GGAACAGA	-0.127
ATTTATGG	0.054
AGCTACTG	-0.0481
TGATTACA	0.189
TAACGCCA	-0.12
CAACCTCC	-0.212
ATGCCTAG	-0.0269
ACCCCTAT	-0.0424
AAGATGAA	-0.083
ATCAAGAA	0.173
AGTATCCA	0.0876
CGATGTGC	-0.0446
CAGTGTGA	-0.0378
GTCAACGA	0.228
CGACCTGC	-0.175
GTGCGTTA	-0.0272

Sequence	PBM E-score
TGATACAA	0.0376
GATGGCCA	0.00452
ACTCCCAC	-0.193
GACAGGAA	0.0498
CACCCTGA	-0.0828
ACCATTCT	0.0166
CTGTATGA	-0.117
ACGTAGAG	0.0878
CGATCCGA	0.103
CTGCGCAA	0.00202
TAACTACA	0.107
CAAAACAC	-0.0784
CACCCTCC	-0.232
CCAGTAGC	0.0513
GATTGTTA	-0.145
CCTCAGCG	-0.0992
AGTGGAAG	-0.17
ATGAACTG	0.165
CCCGACTC	-0.13
AAACCTTC	-0.0946
AACGAGCT	0.0649
AGTACAGC	-0.0838
AAAACCGC	-0.0413
ACTCCTCA	-0.131
AGGTCGTA	0.171

Sequence	PBM E-score
AACAAGTT	-0.122
AGTGCAGA	-0.0854
AAACTCCA	-0.186
ATACAATC	-0.0056
ACGGGGCG	0.137
CATGGCGC	-0.134
CACGACGC	0.172
CGCCCGCC	-0.0519
ACGACTAG	0.0858
AACGCATG	-0.0545
ATACATCG	0.0661
CGCATCCG	-0.188
AGATTTGC	0.0232
ATCCATTA	0.125
ACCATGCG	-0.11
GGGTCGCA	-0.144
ATCGCCAA	-0.098
CGCCTATC	-0.025
GCTCTTGA	-0.288
ATGTCCTC	0.0704
CATTGGTA	-0.133
CTCACACC	-0.133
CGTGTGGC	0.0664
AGTCATGG	0.0847
ACTACCAG	-0.259

Sequence	PBM E-score
CCCTGCTA	-0.0427
GCTATGCC	-0.288
TCTATCAA	0.0435
AATAAAGT	0.128
AGAGAATG	0.121
AGACCGAG	-0.243
GCGAATAA	0.0932
AAGTCCAG	-0.0608
CCAGGGCC	-0.22
GGAATGGA	-0.196
ACTTAAGC	0.121
CGGGACGA	0.173
AAAAAGAG	-0.112
AATTCTAC	0.0797
ACGATAAG	0.243
ACGGGCTA	-0.128
GCTTGCAA	0.0274
TAATCTCA	0.169
CCGCGACG	0.32
ACATGGCG	-0.145
AAGTTAAA	0.143
ATAGGTAG	-0.0453

Reference: the supplement of paper PMC3334620
